Drawing on US20110189290A1, this text covers binding for one molecule.

Amino acid sequences for entries named in this document (tags omitted). Residues count along the entry.
UniProt P05067, residues 672-713: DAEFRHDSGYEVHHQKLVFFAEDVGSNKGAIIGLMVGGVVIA

In the experiment the target is Aβ-42 (UniProt P05067). Put plainly: ELISA: 200 pg peptide coated on plate, 10 ng Aβ-42 added, detected with biotin-labelled 4G8 antibody, absorbance at 620 nm.

No constants are given. Whether binding was seen depends on the method and setting. Some binding calls cover weakened binding; strength is not graded here.

B1: LPFFD (peptide)
peptide: LPFFD
Turning to B1, the binding result is listed as “binds”.
